PubChem BioAssay AID1224827 – NIAID – 2016

Assay: 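Identify regulators of the macrophage TNF-alpha response to bacterial LPS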 (follow-up of hits)
Cell system: RAW264.7 G9 mouse macrophage reporter clone
Reagents: single siRNA against mouse genes, 100 nM siRNA
Time to read-out: siRNA for 2 days, then LPS about 16 h
Challenge: bacterial lipopolysaccharide (LPS), 10 ng/ml, cells fixed after overnight (about 16 h) stimulation
Detection: 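TNF promoter reporter red fluorescence in nuclei, background subtracted, normalised per plate and to non-targeting control siRNA, as z-scores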
Reading the numbers: TNF reporter z-score, mean and TNF reporter z-score: higher = stronger Tnf promoter reporter signal; gene median z, three same-vendor siRNAs: higher = stronger Tnf reporter signal for the gene
Rule for the call: 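An siRNA is called active when its mean z-score over replicates is at least +2 or at most -2; control wells get no call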
Shown is an unselected part of about 3,800 reagents tested. About 2,200 of them (57%) count as active. 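Active means a strong reporter change in either direction; calls are per siRNA, not per gene; qiagen siRNAs gave weaker effects.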 The numbers tell different reagents against one gene apart.

| TNF reporter z-score, mean | gene median z, three same-vendor siRNAs | TNF reporter z-score, repeat 1 | TNF reporter z-score, repeat 2 | call | gene symbol | siRNA no. |
| --- | --- | --- | --- | --- | --- | --- |
| -1.17 | -2.26 | -2.67 | 0.32 | inactive | Fas (Fas cell surface death receptor) | 1 |
| -1.61 | -2.26 | -1.86 | -1.37 | inactive | Fas (Fas cell surface death receptor) | 2 |
| -3.05 | -2.26 | -3.43 | -2.68 | active | Fas (Fas cell surface death receptor) | 3 |
| -1.46 | -1.93 | -1.49 | -1.44 | inactive | Fas (Fas cell surface death receptor) | 4 |
| -1.67 | -1.93 | -0.969 | -2.37 | inactive | Fas (Fas cell surface death receptor) | 5 |
| -2.89 | -1.93 | -3.1 | -2.69 | active | Fas (Fas cell surface death receptor) | 6 |
| -3.06 | -3.55 | -2.81 | -3.32 | active | Fau (FAU ubiquitin like and ribosomal protein S30 fusion) | 1 |
| -3.55 | -3.55 | -3.48 | -3.62 | active | Fau (FAU ubiquitin like and ribosomal protein S30 fusion) | 2 |
| -3.91 | -3.55 | -3.74 | -4.07 | active | Fau (FAU ubiquitin like and ribosomal protein S30 fusion) | 3 |
| -1.13 | -1.76 | -1.48 | -0.787 | inactive | Fau (FAU ubiquitin like and ribosomal protein S30 fusion) | 4 |
| -1.57 | -1.76 | -1.1 | -2.04 | inactive | Fau (FAU ubiquitin like and ribosomal protein S30 fusion) | 5 |
| -3.22 | -1.76 | -4.14 | -2.3 | active | Fau (FAU ubiquitin like and ribosomal protein S30 fusion) | 6 |
| 0.035 | -1.95 | -0.982 | 1.05 | inactive | Or10g1b (olfactory receptor family 10 subfamily G member 1B) | 1 |
| -1.79 | -1.95 | -2.92 | -0.664 | inactive | Or10g1b (olfactory receptor family 10 subfamily G member 1B) | 2 |
| -4.87 | -1.95 | -4.44 | -5.31 | active | Or10g1b (olfactory receptor family 10 subfamily G member 1B) | 3 |
| 2.15 | -0.0747 | 4.56 | -0.27 | active | Or10g1b (olfactory receptor family 10 subfamily G member 1B) | 4 |
| 1.15 | -0.0747 | 2.29 | 0.0155 | inactive | Or10g1b (olfactory receptor family 10 subfamily G member 1B) | 5 |
| -1.24 | -0.0747 | -0.165 | -2.31 | inactive | Or10g1b (olfactory receptor family 10 subfamily G member 1B) | 6 |
| -4.46 | -4.74 | -4.57 | -4.34 | active | Nhlrc2 (NHL repeat containing 2) | 1 |
| -5.3 | -4.74 | -4.38 | -6.21 | active | Nhlrc2 (NHL repeat containing 2) | 2 |
| -5.33 | -4.74 | -4.91 | -5.75 | active | Nhlrc2 (NHL repeat containing 2) | 3 |
| 1.54 | -0.0825 | 3.13 | -0.0498 | inactive | Nhlrc2 (NHL repeat containing 2) | 4 |
| 1.14 | -0.0825 | 2.4 | -0.115 | inactive | Nhlrc2 (NHL repeat containing 2) | 5 |
| -1.6 | -0.0825 | -1.53 | -1.67 | inactive | Nhlrc2 (NHL repeat containing 2) | 6 |

Copied from above, 3 entries:
| TNF reporter z-score, mean | gene median z, three same-vendor siRNAs | TNF reporter z-score, repeat 1 | TNF reporter z-score, repeat 2 | call | gene symbol | siRNA no. |
| --- | --- | --- | --- | --- | --- | --- |
| -1.46 | -1.93 | -1.49 | -1.44 | inactive | Fas (Fas cell surface death receptor) | 4 |
| -1.67 | -1.93 | -0.969 | -2.37 | inactive | Fas (Fas cell surface death receptor) | 5 |
| -2.89 | -1.93 | -3.1 | -2.69 | active | Fas (Fas cell surface death receptor) | 6 |
